Assay results from PMC8871863, “Initiator-Directed Transcription: Fission Yeast Nmtl Initiator Directs Preinitiation Complex Formation and Transcriptional Initiation” (Genes, 2022).
No constants are given. Whether binding was seen depends on the method and setting. Some entries that bind do so weakly or less than the wild type. Sequences can lack the tags named with a protein.

Target: T1, TAP-tagged Med7 (fission yeast (S. pombe)) (UniProt O60104)
T1 sequence: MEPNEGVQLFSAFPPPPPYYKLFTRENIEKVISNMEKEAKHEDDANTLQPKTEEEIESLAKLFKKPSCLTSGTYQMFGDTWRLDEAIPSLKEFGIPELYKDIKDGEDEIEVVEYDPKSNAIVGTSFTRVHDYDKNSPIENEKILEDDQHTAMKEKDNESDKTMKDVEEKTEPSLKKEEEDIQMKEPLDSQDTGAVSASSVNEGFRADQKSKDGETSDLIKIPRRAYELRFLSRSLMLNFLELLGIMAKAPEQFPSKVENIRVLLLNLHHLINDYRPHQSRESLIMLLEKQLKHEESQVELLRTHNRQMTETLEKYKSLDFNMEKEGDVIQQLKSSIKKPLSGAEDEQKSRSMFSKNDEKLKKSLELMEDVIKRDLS
Experiment: depletion of extract on IgG-Sepharose, Western blot of the depleted extract; whole-cell extract of the TAP-tagged Med7 strain at 0.5 M potassium acetate, IgG-Sepharose, 30 min at room temperature then 2 h at 4 °C; supernatant blotted

B1: Med17 (protein, UniProt P87306 1-545)
chain: MAEEANKDADISSLSLSLDPEIIGGQNNFLENNLQQIFQKIIQERGPFRDLKEEDLQKELQKESIKDESSAKSSETENVLEFATLDSKRNVNDTEVESMDSQAYKKELIEQIMIAQTECSLALDMTSLLLSKFKENSIETISPFLKSTVPPSSLQFSRSQPPESKESDATLAKCWKEKSLTSSCKFLFEAKERLTSVVETEHEYYTELVKVKEASWPLFNSQGSNHLSVQYSCLGGISLGLGLIRMKPESKSFEVQSSLLYSQAALKISILNKDRDEIGSSTWSWPSQNCNSVLLKDIYKLQEILFEMDIWNSLLQEAQSCGNQGVNFTGDEILVPISDDHVVRITLETSSKNTESGFTEDKKSNEDTSTNFVTIKQEKELLKCLCDTLNAIAHILFLKHCRKSDRRSQQPELYMAIDANAPLILRPLIFYYNLNQESLEFQRWLKQRDISFKFMPNYPWEKAKDFLELENSLSINRLSISWRIMVSNFEPAIFIQHTPTLHGTDKSVWRCKDQYSSNQFSSLKNVCQYIEHHINSLSRRSKKTE
binding: binds
